Data as given in patent US9410947B2, “Fluorescent dyes and related methods” (University of Washington through its Center for …, priority 2012, dated 2016).
At least one compound was matched to its structure with a doubt left.

Tests used:
[1] = tested on: dsDNA; assay: QCM-D binding study, dsDNA layer; set-up: species or system salmon; details: pH 7.2 1×TE buffer, 298 K, 0.3 mL/min, rinse ten minutes
Description: (§1) In yet another aspect, the present disclosure includes methods for quantifying nucleic acid molecules in a sample. For example, the present disclosure can include a method of determining a quantity of a nucleic acid molecule in a sample using the Quartz Crystal Microbalance with Dissipation Monitoring (QCM-D) method. QCM-D can be used to determine the formation of films (e.g., nm in thickness). For example, films may be formed on a surface from proteins, polymers, surfactants and cells. QCM-D can detect films formed in liquid and may be used to determine binding kinetics of, for example, cationic dyes (e.g., ethidium bromide, DANPY-1 and/or DAST). For example, a Q-Sense instrument (e.g., a Q-Sense E4 instrument, Biolin Scientific AB, Stockholm) can be used for QCM-D using a dedicated set of QCM sensors (e.g., SiO2-coated). The procedures of cleaning, deposition, mass monitoring, and preparing nucleic acid for QCM-D are known. (R. J. Rawle, C. R. D. Selassie, M. S. Johal, Langmuir 2007, 23, 9563-9566). Data can be output as kinetics that can include structural changes and mass changes. The crystals can be, for example, coated with a polyethylene imine (PEI) layer to enable binding of anionic nucleic acids. The crystals can be, for example, coated with a polymer polystyrene sulfonate (PSS), that only undergoes loose electrostatic binding. […]

[2] = tested on: salmon sperm DNA; assay: Photometric (colorimetric) titration of dye solutions with DNA, Scatchard / n-K fit; assay type: binding
Method: Dye/DNA binding was assessed. The binding constant and number of dye molecules bound per base pair were assessed by means of photometric titrations (Peacocke, A. R.; Skerrett, J. N. H., Trans. Faraday Soc. 1956, 52, 261, Angerer, L. M.; Moudrianakis, E. N., J. Mol. Bio. 1972, 63, 505-521) of dye solutions with commercially available salmon sperm DNA (Sigma Aldrich, MW 50 kD to 100 kD) in 10 mM TE buffer at pH 7.2. Experiments were run using a temperature-controlled Ocean Optics diode array spectrophotometer at 25.0° C., with 2.5 mL of dye solution at a concentration sufficient for an initial optical density near 0.75, adding 1.5 mM DNA solution in 30 μL aliquots.
This example describes affinity of DANPY-1 to DNA. The affinity of DANPY-1 was compared to the common intercalating dye ethidium bromide by means of photometric titrations with DNA in aqueous buffer. The wavelength undergoing the largest absorption change (467 nm for ethidium bromide, 391 nm for DANPY-1) was used for determining the fraction of dye bound. […] These experiments were analyzed using the Scatchard equation (Scatchard, G., Ann. N.Y. Acad. Sci. 1949, 51, 662-672.) […]
A titration methodology was also used. Dyes were evaluated for their DNA-binding properties by means of colorimetric titrations in buffered aqueous solution (1×TE buffer titrated to pH 7.2 with HCl). […] After allowing the solution to mix for about one minute, the stirrer was stopped and a spectrum was recorded. If the initial absorbance of the dye was ≧1, the dye solution was diluted with the appropriate solvent (TE buffer, methanol, or butanol) until the initial absorbance was <1. Runs continued until changes in absorbance became small (dilution only) or 450 μL of titrant was added, whichever was longer. Spectra were then examined to determine the wavelength at which the dye's absorbance changed most over the course of the titration. The reduced absorbance change
[formula] was calculated at the selected wavelength for each point in the titration. […]

[3] = QCM-D binding study, bare SiO2 control; details: pH 7.2 1×TE buffer, 298 K
Description: as §1

[4] = QCM-D binding study, PEI layer
Description: The three nucleic acids (e.g., single-stranded DNA (ssDNA), double-stranded DNA (dsDNA), and transfer RNA (tRNA)) used in this example are anionic. The crystals were coated with a polyethylene imine (PEI) layer to create a surface and enable binding of the nucleic acids. […] Polystyrene sulfonate (PSS) was used as a control polymer. As controls, PSS which can only undergo loose electrostatic binding, and bare SiO2 were used. Any materials used for coating were allowed to deposit until a stable mass was reached (e.g., for five minutes) followed by five minutes of rinsing with buffer between each layer; (1) PEI or PSS, (2) nucleic acid and (3) the dye. After deposition, the film was rinsed with buffer for ten minutes. If the adsorbed mass returned to near the form immediately prior to the addition of the dye, then remained stable, the binding was characterized as reversible. Binding was characterized as irreversible if the mass remained constant after rinsing or leveled off at a substantially higher value than before the dye was added.

[5] = tested on: ssDNA; assay: QCM-D binding study, ssDNA layer; set-up: species or system salmon; details: pH 7.2 1×TE buffer, 298 K, 0.3 mL/min, rinse ten minutes
Description: as §1

[6] = QCM-D binding study, PSS control polymer; details: pH 7.2 1×TE buffer, 298 K
Description: as §1

[7] = at 480 nm in aqueous solution; cited from earlier work
[8] = tested on: salmon sperm DNA; details: 20° C. in a CsCl/EDTA solution; cited from earlier work
[9] = tested on: tRNA; assay: QCM-D binding study, tRNA layer; details: pH 7.2 1×TE buffer, 298 K, 0.3 mL/min, rinse ten minutes
Description: as §1

[10] = tested on: DNA; assay: Electronic circular dichroism of dye added to DNA solution; assay type: binding

## CC[n+]1c(-c2ccccc2)c2cc(N)ccc2c2ccc(N)cc21 [ethidium bromide]
[1]; listed as Ethidium Bromide
  QCM-D binding to dsDNA: Irreversible
[1]; listed as Ethidium bromide
  QCM-D binding to dsDNA: superior binding to ds DNA compared to ssDNA or tRNA
[2]; TE buffer
  shift in absorbance maximum upon addition of DNA: exhibited a shift in absorbance maximum
[2]; TE buffer pH 7.2, 25 °C, fit of binding curves
  n (base pairs/dye): 1.91±0.015
[2]; aqueous buffer
  fraction of sites bound (nearest-neighbor exclusion): binds to only half of the sites
[3]; listed as Ethidium Bromide
  QCM-D binding to SiO2: Irreversible
[3]; listed as Ethidium bromide
  QCM-D binding to SiO2: bound to both control surfaces
[4]
  QCM-D binding to PEI layer: did not bind
[5]
  QCM-D binding to ssDNA: Binding. Inconclusive
[6]; listed as Ethidium Bromide
  QCM-D binding to PSS: Irreversible. Much
[6]; listed as Ethidium bromide
  QCM-D binding to PSS: bound to both control surfaces
[7]
  extinction coefficient: 5800 ± 200 M⁻¹ cm⁻¹
[8]
  n (base pairs/dye), prior experiments: 2.17
[9]
  QCM-D binding to tRNA: None/slight
[10]
  additional circular dichroism peak in the dye's UV absorbance range when added to DNA: an additional peak appears
